# Earlier results, collected in US20110003844A1, “REGULATION OF CARDIAC CONTRACTILITY AND HEART FAILURE PROPENSITY” (Children's Hospital Medical Center, priority 2003, published 2011).
# For at least one compound, name, drawing or mass did not settle the structure.
# Conditions: cited from earlier work
smiles,measurement,value
"CCCCCCCCCCCCCC(=O)O[C@@H]1[C@@H](C)[C@@]2(O)[C@@H](C=C(CO)C[C@]3(O)C(=O)C(C)=C[C@@H]23)[C@@H]2C(C)(C)[C@]12OC(C)=O [TPA, 12-O-tetradecanoylphorbol 13-acetate]",cell shortening,significant increases in cell shortening
